Data on 20 compounds can be found in PubChem BioAssay AID248 (DTP/NCI, 2004).

The list shows only some results of the screen, not a fair sample: it gathers tests that were run many times, whatever their T/C, doses with no T/C, and many T/C values between a quarter and a half above the control. Further doses and runs are listed elsewhere. T/C is the treated group as % of the vehicle group. Some doses have a count of surviving animals in place of a T/C: the source files T/C as zero there, which appears to mark a toxic dose or a test without result, not a measured value. Some doses without a T/C left all or most animals alive at the check, yet need not have been tolerated: the source hardly ever lists a survival T/C far under the control, and the zero likely stands for such cases as well. Survivors were counted at the toxicity check, usually on the fifth day, unless a day is given; later deaths do not show. Schedule codes are those of the source, read here as Q, the interval in days (D) or hours (H), X, the number of doses. Some entries were tested several times; the results are listed from low to high. Some schedule codes hold Z or #, which are not explained here. Where survival is the endpoint, the PubChem record calls one and a half times the control and up active, and a quarter to a half above the control has no call in these data; cut-offs in other NCI protocols can differ.

The experiment deals with L1210 leukemia ip in BDF1 mice, survival T/C. As to the kind of experiment: NCI In Vivo Anticancer Drug Screen. Data for tumor model L1210 Leukemia (intraperitoneal) in B6D2F1 (BDF1) mice. The following applies: T/C endpoint: mean survival time, higher T/C = longer survival.
The mark [1] stands for this setting: dose: 100.0 mg/kg/injection, schedule: Q01DX001 (ip), vehicle: saline.
Where [2] appears, read: dose: 200.0 mg/kg/injection, schedule: Q01DX001 (ip), vehicle: carboxymethylcellulose (CMC).
Setting [3] is: dose: 200.0 mg/kg/injection, schedule: Q01DX001 (ip), vehicle: saline.
Where [4] appears, read: dose: 400.0 mg/kg/injection, schedule: Q01DX001 (ip), vehicle: carboxymethylcellulose (CMC).
Setting [5] is: dose: 400.0 mg/kg/injection, schedule: Q01DX001 (ip), vehicle: saline.
Where [6] appears, read: dose: 200.0 mg/kg/injection, schedule: Q04DX003 (ip), vehicle: Klucel (hydroxypropylcellulose) (HPC).
The mark [7] stands for this setting: dose: 400.0 mg/kg/injection, schedule: Q04DX003 (ip), vehicle: Klucel (hydroxypropylcellulose) (HPC).
The mark [8] stands for this setting: dose: 200.0 mg/kg/injection, schedule: Q04DX003 (ip), vehicle: saline with Tween-80.
Setting [9] is: dose: 400.0 mg/kg/injection, schedule: Q04DX003 (ip), vehicle: saline with Tween-80.
Setting [10] is: dose: 25.0 mg/kg/injection, schedule: Q01DX009 (ip), vehicle: saline with Tween-80.
Setting [11] is: dose: 50.0 mg/kg/injection, schedule: Q01DX009 (ip), vehicle: saline with Tween-80.

Consider `Cc1ccccc1CC1c2[nH]c3ccccc3c2CCN1C` (centres undefined), for which, for the setting “dose: 300.0 mg/kg/injection, schedule: Q01DX001 (ip), vehicle: other”, the survivor count is listed as 1 of 6.

`COC1CC(O[C@H]2CC[C@@]3(C)[C@H](CC[C@@H]4[C@@H]3CC[C@]3(C)[C@@H](C5=CC(=O)OC5)[C@@H](OC(C)=O)C[C@]43O)C2)OC(C)C1O` (some centres undefined): the survivor count by setting is: under setting [1], 0 of 6; under setting [2], 2 of 6; under setting [3], 0 of 6; under setting [4], 0 of 6; under setting [5], 0 of 6.

Consider `O=C(Nc1ccc(NC(=O)Nc2cc(C(=O)Nc3ccc(C4=NCCN4)cc3)ccc2C(=O)Nc2ccc(C3=NCCN3)cc2)cc1)Nc1cc(C(=O)Nc2ccc(C3=NCCN3)cc2)ccc1C(=O)Nc1ccc(C2=NCCN2)cc1`, for which the T/C reads like this: (dose: 180.0 mg/kg/injection, schedule: Q01DX Z (ip), vehicle: saline) 131 % of control; (dose: 270.0 mg/kg/injection, schedule: Q01DX Z (ip), vehicle: saline) 146 % of control.

As to `O=[N+]([O-])c1ccc2nocc2c1`, the survivor count was 0 of 3 under setting [6] and 0 of 3 under setting [7].

On to `COc1ccc(CC(N)C(=O)OC(C)C)cc1N(CCCl)CCCl` (centres undefined), for which the survivor count by setting is: (dose: 12.5 mg/kg/injection, schedule: Q01DX001 (ip), vehicle: saline) 3 of 6; (dose: 25.0 mg/kg/injection, schedule: Q01DX001 (ip), vehicle: saline) 0 of 6; (dose: 50.0 mg/kg/injection, schedule: Q01DX001 (ip), vehicle: saline) 0 of 6; under setting [1], 0 of 6; under setting [3], 0 of 6; under setting [5], 0 of 6.

As for `CCCCP(=O)(CCCC)Oc1cccc([N+](=O)[O-])c1`, the survivor count was 1 of 6 under setting [8] and 1 of 6 under setting [9].

On to `CC1NC=NC1C(c1ccccc1)c1ccccc1` (centres undefined), for which the survivor count under setting [8] was 1 of 6 and the survivor count under setting [9] is given as 1 of 6.

Take `CC1=CC(C)(C)NC(=S)N1c1ccccc1`: where the note is “dose: 100.0 mg/kg/injection, schedule: Q01DX009 (ip), vehicle: Klucel (hydroxypropylcellulose) (HPC)”, the survivor count was 6 of 6.

Turning to `C/C(=N/N=C(N)N)C(F)(F)F`, the survivor count is 0 of 6 (dose: 60.0 mg/kg/injection, schedule: Q01DX Z (ip), vehicle: saline); 5 of 6 (dose: 60.0 mg/kg/injection, schedule: Q01DX Z (oral), vehicle: saline); 0 of 6 (dose: 120.0 mg/kg/injection, schedule: Q01DX Z (ip), vehicle: saline); 0 of 6 (dose: 120.0 mg/kg/injection, schedule: Q01DX Z (oral), vehicle: saline).

For `CCN(CC)CCCNc1nc(C(Cl)(Cl)Cl)nc2ccc(I)cc12`, the survivor count (dose: 400.0 mg/kg/injection, schedule: Q01DX009 (ip), vehicle: Klucel (hydroxypropylcellulose) (HPC)) was 5 of 6.

Take `CC(CC(=O)O)C1Nc2ccccc2S(=O)(=O)C(c2ccccc2)C1=O` (centres undefined): the survivor count under setting [6] is given as 1 of 6; the survivor count under setting [7] was 0 of 6 and 6 of 6.

Consider `O=[N+]([O-])/C(N=Nc1ccc(Br)cc1)=N\Nc1ccc(Br)cc1`, for which, for the setting “dose: 300.0 mg/kg/injection, schedule: Q01DX001 (ip), vehicle: acetone”, the survivor count is on record as 5 of 6.

Consider `Cc1ccc(NC(=O)Oc2c(C)cccc2C)c([N+](=O)[O-])c1`, for which the survivor count (dose: 200.0 mg/kg/injection, schedule: Q01DX009 (ip), vehicle: Klucel (hydroxypropylcellulose) (HPC)) was 3 of 3.

`O=C(CF)CCl`: the survivor count (dose: 7.0 mg/kg/injection, schedule: Q01DX009 (ip), vehicle: saline) was 0 of 6; the survivor count (dose: 14.0 mg/kg/injection, schedule: Q01DX009 (ip), vehicle: saline) is on record as 3 of 6; the survivor count (dose: 28.0 mg/kg/injection, schedule: Q01DX009 (ip), vehicle: saline) was 0 of 6; the survivor count (dose: 56.0 mg/kg/injection, schedule: Q04DX003 (ip), vehicle: saline) is 0 of 6.

As for `NC(=O)NN=C1CSSC1`, the survivor count reads like this: under setting [10], 0 of 6; (dose: 25.0 mg/kg/injection, schedule: Q04DX003 (ip), vehicle: saline with Tween-80) 2 of 6; under setting [11], 0 of 6; (dose: 50.0 mg/kg/injection, schedule: Q04DX003 (ip), vehicle: saline with Tween-80) 0 of 6.

Take `O=C(Nc1ccc(C2=NCCN2)cc1)c1cccc(NC(=S)Nc2ccc(C3=NCCN3)cc2)c1`: under “dose: 10.0 mg/kg/injection, schedule: Q01DX Z (ip), vehicle: saline”, the T/C is 130 and 131 % of control. Besides, under “dose: 40.0 mg/kg/injection, schedule: Q01DX Z (ip), vehicle: saline”, the survivor count is 1 of 6 and 2 of 6.

On to `O=[N+]([O-])c1ccc2c(c1)n([O-])c1ccccc1[n+]2=O`, for which the survivor count runs as follows: (dose: 50.0 mg/kg/injection, schedule: Q04DX003 (ip), vehicle: Klucel (hydroxypropylcellulose) (HPC)) 6 of 6; (dose: 400.0 mg/kg/injection, schedule: Q01DX001 (ip), vehicle: Klucel (hydroxypropylcellulose) (HPC)) 3 of 6.

For the compound `Nc1ncc(C(=O)O)c(N)n1`, the survivor count runs as follows: (dose: 200.0 mg/kg/injection, schedule: Q01DX001 (ip), vehicle: other) 3 of 6; (dose: 400.0 mg/kg/injection, schedule: Q01DX001 (ip), vehicle: other) 0 of 6.

Regarding `CC1(C)C(=O)N(Br)C(=O)N1Br`, the survivor count is, setting by setting: (dose: 100.0 mg/kg/injection, schedule: Q04DX003 (ip), vehicle: Klucel (hydroxypropylcellulose) (HPC)) 1 of 3; under setting [6], 3 of 3; under setting [7], 1 of 3.

Take `O=NN1CCN(N=O)CC1`: the survivor count is 2 of 6 under setting [10]; 3 of 6 under setting [11]; 0 of 6 (dose: 100.0 mg/kg/injection, schedule: Q01DX009 (ip), vehicle: saline with Tween-80); 3 of 6 under setting [2]; 0 of 6 under setting [8]; 3 of 6 under setting [4]. In addition, under setting [9], the survivor count is reported as 0 of 6.
